These are yes or no findings as the source states them, for the method shown. Some entries that bind do so weakly or less than the wild type.
How the values were obtained:
[1] = biological target: T1, mature myostatin released from latent complex following BMP-1 cleavage (mature human and mouse sequences 100% identical) (UniProt O08689); experiment: ELISA, antigen coated at 100 ng/well, dilution series of 10B3, peroxidase anti-mouse IgG F(ab')2, TMB, OD450 (Example 2.3)
T1 sequence: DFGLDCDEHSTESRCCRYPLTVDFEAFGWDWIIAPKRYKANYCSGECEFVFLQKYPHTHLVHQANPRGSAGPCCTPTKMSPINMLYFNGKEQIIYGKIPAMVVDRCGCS

[2] = biological target: T1, mature myostatin released from latent complex following BMP-1 cleavage (mature human and mouse sequences 100% identical); experiment: ELISA, plate-coated antigen (FIG. 4)

B1: mouse monoclonal antibody 10B3 (antibody, V domains shown)
VH: EVQLQQSGPELVKPGASVKISCKASGYSFTGYFMHWVKQSHGNILDWIGNIYPYNGVSNYNQRFKAKATLTVDKSSSTAYMELRSLTSEDSAVYYCARRYYYGTGPADWYFDVWGTGTTVTVSS
VL: DIKMTQSPSSMYASLRERVTITCKASQDINSYLSWFQQKPGKSPKTLIYRANRLVDGVPSRFSGSGSGQDYSLTISSLEYEDMGIYYCLQCDEFPLTFGAGTKLELK
For B1, the binding [1] was “binds” and the binding [2] was “binds”.
